Results from US20240335433A1, “CELL CYCLE SYNCHRONIZATION PROCESS” (priority 2023, published 2024).
Some results were stated once for a whole list of compounds, not compound by compound.

Assay: Removal of thymidine analogues from circulation (S phase labelling window after injection)
Type: in vivo, mouse
Conditions: injected into mice
Protocol: These two molecules become stably incorporated into DNA during DNA replication (S phase). When either is injected into mice, it labels at high levels only those tissue cells actively replicating DNA (in S phase) at that time. Because these drugs are both rapidly removed from circulation, only cells actively replicating DNA within 1 hour of injection are labelled. If the second drug is introduced into the same animal at a later time, thereafter, it too will label only those cells in S phase at the time of the second injection. The tissues are then collected and stained for BRDU and EDU with separate fluorescence tags. The intensity of each marker is then determined by fluorescent image analysis. Fortunately, it is the characteristic of dividing cells that these two labels are incorporated most efficiently into nuclei of cells near the middle of S phase. When the two injections are separated by the length of the cell cycle, therefore, both markers will be stained at maximal levels in the same cell. The cell cycle characteristics of a tissue can then be determined by comparing results following injections separated by increasing lengths of time.

## C#Cc1cn([C@H]2C[C@H](O)[C@@H](CO)O2)c(=O)[nH]c1=O [EDU, 5-Ethynyl-2′-deoxyuridine]
  time after injection within which replicating cells are labelled (rapid removal from circulation): ≤ 1 h
